These are yes or no findings as the source states them, for the method shown. Binding seen in cells or lysates may run through a third protein. Here binding means that the protein was enriched with, or labelled near, the bait; the list need not be complete. Where a sequence is shown, tags or fusion partners need not be part of it.
T1: LIN-61::GFP (C. elegans) (UniProt B2D6M2)
T1 sequence: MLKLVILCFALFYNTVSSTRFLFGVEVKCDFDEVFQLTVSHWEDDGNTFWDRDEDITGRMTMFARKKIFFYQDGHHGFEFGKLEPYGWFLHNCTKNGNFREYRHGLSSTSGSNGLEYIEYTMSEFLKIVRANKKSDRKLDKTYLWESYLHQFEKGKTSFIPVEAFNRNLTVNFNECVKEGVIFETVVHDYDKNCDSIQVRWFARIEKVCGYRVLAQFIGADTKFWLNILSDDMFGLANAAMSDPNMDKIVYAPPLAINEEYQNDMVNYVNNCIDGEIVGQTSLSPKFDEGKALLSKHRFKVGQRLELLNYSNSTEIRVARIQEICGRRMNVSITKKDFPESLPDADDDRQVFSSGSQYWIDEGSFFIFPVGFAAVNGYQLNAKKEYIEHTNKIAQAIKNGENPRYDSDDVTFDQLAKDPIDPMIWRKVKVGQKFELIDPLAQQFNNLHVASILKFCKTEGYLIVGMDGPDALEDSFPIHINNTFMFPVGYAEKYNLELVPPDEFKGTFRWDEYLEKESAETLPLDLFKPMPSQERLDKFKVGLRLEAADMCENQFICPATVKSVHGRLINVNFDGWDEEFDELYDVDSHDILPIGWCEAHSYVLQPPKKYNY

Chains of the proteins cited; added tags and fusions are not shown.
UniProt Q11107: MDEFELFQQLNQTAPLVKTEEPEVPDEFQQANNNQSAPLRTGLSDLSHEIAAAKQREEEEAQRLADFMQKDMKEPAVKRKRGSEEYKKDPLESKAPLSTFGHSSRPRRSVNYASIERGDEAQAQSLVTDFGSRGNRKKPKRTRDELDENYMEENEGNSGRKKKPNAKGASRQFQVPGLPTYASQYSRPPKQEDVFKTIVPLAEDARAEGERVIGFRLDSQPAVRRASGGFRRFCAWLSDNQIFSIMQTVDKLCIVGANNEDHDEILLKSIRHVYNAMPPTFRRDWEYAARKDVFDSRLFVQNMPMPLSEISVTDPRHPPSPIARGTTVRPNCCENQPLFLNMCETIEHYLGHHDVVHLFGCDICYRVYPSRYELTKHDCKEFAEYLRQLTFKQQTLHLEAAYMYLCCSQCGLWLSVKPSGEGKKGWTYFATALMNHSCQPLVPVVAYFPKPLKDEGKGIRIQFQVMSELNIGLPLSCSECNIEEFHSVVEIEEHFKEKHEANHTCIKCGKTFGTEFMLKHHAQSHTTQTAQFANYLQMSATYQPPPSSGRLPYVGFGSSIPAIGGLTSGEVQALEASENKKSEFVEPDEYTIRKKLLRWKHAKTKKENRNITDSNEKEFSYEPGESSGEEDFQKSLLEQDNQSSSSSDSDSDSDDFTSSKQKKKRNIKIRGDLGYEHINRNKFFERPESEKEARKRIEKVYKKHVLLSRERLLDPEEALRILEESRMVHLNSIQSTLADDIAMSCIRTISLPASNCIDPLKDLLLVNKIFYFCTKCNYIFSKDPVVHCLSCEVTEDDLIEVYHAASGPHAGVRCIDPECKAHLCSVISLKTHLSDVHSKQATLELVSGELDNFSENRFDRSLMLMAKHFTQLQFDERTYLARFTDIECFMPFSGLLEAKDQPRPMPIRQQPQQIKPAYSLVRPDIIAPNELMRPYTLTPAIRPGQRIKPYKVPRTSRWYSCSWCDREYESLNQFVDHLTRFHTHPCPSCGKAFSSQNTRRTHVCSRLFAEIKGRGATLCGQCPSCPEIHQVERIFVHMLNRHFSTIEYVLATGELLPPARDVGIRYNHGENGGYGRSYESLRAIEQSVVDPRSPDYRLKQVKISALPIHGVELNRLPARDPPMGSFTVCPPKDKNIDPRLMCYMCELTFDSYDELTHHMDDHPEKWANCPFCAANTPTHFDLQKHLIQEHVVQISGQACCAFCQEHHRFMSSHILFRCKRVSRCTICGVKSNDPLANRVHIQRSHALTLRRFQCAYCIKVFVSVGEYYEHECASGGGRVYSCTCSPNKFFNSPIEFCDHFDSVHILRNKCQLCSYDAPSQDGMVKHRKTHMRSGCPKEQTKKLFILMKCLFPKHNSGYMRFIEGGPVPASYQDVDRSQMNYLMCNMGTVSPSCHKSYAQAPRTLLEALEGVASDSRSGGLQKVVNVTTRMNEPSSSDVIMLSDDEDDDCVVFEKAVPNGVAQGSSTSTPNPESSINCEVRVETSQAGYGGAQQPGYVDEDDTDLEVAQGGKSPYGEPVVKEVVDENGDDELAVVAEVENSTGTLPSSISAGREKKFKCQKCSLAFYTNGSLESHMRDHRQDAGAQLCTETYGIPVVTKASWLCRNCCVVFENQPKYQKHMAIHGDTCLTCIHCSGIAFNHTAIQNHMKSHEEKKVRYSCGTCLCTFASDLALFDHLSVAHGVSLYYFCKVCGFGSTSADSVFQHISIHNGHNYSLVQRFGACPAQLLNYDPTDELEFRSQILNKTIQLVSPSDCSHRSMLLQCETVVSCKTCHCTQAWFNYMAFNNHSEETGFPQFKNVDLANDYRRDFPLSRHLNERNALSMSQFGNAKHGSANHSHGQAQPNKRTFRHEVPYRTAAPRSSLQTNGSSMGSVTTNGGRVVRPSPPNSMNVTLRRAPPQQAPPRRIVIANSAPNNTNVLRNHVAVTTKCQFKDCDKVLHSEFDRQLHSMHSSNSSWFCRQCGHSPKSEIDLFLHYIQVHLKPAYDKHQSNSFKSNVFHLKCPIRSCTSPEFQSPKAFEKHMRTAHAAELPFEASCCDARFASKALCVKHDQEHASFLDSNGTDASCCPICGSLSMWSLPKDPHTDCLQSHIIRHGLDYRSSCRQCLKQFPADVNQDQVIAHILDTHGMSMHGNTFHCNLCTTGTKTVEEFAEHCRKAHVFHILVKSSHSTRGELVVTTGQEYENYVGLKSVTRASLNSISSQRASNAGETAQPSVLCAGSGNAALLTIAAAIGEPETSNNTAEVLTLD


Target: T1, LIN-61::GFP (C. elegans)
Assay: affinity purification with mass spectrometry; large scale anti-GFP (clone 3E6 on protein A agarose) immunoprecipitation from lysate of embryos expressing LIN-61::GFP; 50 mM HEPES pH 7.6, 140 mM KCl, 10 mM NaCl, 1 mM MgCl2, 1 mM EDTA, 10% glycerol, 0.1% beta-octylglucoside; 4C, 2 hours; parallel IP from untagged control embryos

Row | binding | Molecule
1 | binds | LIN-13 (from UniProt Q11107 1-2248)
2 | binds | HPL-2 (protein, UniProt G5EDE2 1-175) MSSKSTKRAKIEDPKDNVFMVEKVLDKRTGKAGRDEFLIQWQGFPESDSSWEPRENLQCVEMLDEFEREFSKREKPIRKRHSQKPEPSEDQADPEEDKDEKKETNQNDKFSLEGKQLKCIVGLTKGPGELHFLCKFSDDTARLLPAKEVNSRYPSQVIRYYESKLTIQDPKADEL

From article PMC3297578
